Experimental data published in paper PMC12828400.
Results are given in words; binding and its absence hold for the method and conditions named. In cells and extracts the contact can be indirect. Some binding calls cover weakened binding; strength is not graded here. Values belong to the binder of their own block, whether it stands above or below them.

Key:
[1] = biological target: T1, CEP57L1 (human (endogenous in HCT116/SW620)) (UniProt Q8IYX8); experiment: co-IP; antibodies against KLHL13, CUL3 or CEP57L1 each used to precipitate; HCT116/SW620 cells with or without 300 ug/ml AGEs for 36 h (interactions attenuated by AGEs); Western blot
T1 sequence: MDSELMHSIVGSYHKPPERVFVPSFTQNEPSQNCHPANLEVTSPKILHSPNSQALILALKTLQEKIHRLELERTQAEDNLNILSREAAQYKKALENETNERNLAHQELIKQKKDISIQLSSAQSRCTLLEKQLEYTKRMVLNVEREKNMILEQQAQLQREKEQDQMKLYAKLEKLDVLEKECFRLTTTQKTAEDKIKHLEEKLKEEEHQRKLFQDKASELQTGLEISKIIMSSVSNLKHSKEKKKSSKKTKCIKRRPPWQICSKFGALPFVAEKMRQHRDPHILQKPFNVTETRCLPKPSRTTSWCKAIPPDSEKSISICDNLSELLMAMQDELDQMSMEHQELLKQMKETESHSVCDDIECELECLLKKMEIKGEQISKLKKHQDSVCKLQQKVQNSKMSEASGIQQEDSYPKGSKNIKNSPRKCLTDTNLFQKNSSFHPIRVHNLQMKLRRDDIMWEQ

[2] = biological target: T2, CEP57L1 251-460 C-terminal residues (human (cDNA from HCT116 cells)) (UniProt Q8IYX8); experiment: co-IP; CEP57L1 fragments 1-250 or 251-460 (pCDNA3.1-His constructs) as bait; KLHL13 and CUL3 detected; Western blot
T2 sequence: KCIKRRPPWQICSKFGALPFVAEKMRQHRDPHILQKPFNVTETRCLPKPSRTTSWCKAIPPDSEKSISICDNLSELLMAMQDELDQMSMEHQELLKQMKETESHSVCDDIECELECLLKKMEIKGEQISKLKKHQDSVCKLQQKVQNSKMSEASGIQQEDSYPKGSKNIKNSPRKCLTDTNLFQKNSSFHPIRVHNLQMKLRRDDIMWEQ

[3] = biological target: T3, CEP57L1 1-250 N-terminal residues (human (cDNA from HCT116 cells)) (UniProt Q8IYX8); experiment: as above
T3 sequence: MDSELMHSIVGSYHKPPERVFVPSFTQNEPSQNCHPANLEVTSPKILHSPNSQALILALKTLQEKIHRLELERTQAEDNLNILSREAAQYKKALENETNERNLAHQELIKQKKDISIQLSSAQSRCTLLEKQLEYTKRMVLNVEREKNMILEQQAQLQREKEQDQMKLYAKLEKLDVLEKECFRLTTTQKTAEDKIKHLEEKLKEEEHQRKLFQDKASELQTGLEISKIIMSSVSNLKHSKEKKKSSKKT

[4] = biological target: T4, Kelch-like (KLHL)13 (human (endogenous in HCT116/SW620)) (UniProt Q9P2N7); experiment: co-IP; antibodies against KLHL13, CUL3 or CEP57L1 each used to precipitate; HCT116/SW620 cells with or without 300 ug/ml AGEs for 36 h (interactions attenuated by AGEs); Western blot
T4 sequence: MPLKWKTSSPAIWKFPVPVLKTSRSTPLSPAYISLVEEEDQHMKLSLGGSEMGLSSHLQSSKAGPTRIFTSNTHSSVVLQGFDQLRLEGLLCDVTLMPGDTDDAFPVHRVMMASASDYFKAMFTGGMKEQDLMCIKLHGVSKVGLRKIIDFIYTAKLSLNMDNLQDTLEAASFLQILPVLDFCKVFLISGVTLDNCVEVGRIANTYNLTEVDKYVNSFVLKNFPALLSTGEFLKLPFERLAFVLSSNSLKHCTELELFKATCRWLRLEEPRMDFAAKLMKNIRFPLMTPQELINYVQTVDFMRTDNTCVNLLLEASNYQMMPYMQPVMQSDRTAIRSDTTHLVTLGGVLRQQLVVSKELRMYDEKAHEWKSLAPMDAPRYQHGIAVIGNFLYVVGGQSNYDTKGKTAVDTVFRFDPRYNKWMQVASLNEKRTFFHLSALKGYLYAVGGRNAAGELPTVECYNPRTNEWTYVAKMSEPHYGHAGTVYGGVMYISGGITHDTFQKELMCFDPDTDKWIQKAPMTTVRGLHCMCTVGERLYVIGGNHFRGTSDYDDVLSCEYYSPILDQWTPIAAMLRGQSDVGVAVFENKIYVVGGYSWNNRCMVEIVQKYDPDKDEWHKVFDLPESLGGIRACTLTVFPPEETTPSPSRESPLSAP

- binding [1]: binds
- binding [2]: binds weakly
- binding [3]: binds
B1: Kelch-like (KLHL)13 (protein, UniProt Q9P2N7 1-655)
chain: T4 sequence

- binding [4]: binds
B2: CEP57L1 (protein, UniProt Q8IYX8 1-460)
chain: T1 sequence
